# Reference: the supplement of paper PMC7125110
# ± gives the standard error. Many entries were measured with a wide error.
# B1: glmS ribozyme (parent)
# chain: AUAAAAGCGCCAGAACUACAGAAAUGUAGUUGACGAGGAGGAGGUUUAUCGAAUUUUCGGCGGAUGCCUCCAAA
# Variants of: B1
# Assay: KM; higher = weaker cofactor use; RNA array
# Conditions: with glucosamine-6-phosphate
# Outline: (§1)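 Ribozyme variants carrying barcodes were transcribed in situ on sequenced MiSeq chips by E. coli RNA polymerase and tracked at 37 °C with a hybridised Cy3 probe. They were exposed to 40 μM to 10 mM glucosamine-6-phosphate in HEPES/KCl/Mg(OAc)2 buffer. kobs came from exponential decay fits of normalised per-tile medians, and kcat and KM from weighted Michaelis–Menten fits.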
row,Variant,KM [µM]
1,G32A U45A,2580 ± 370
2,G32A U45G,2680 ± 1900
3,G37A A53C C71U,1010 ± 85
4,A33U U49G,44.7 ± 12
5,G32A G60U,369 ± 220
6,G37A U55A,4600 ± 2700
7,U31A C58A,32800 ± 9800
8,U31A C58G,35400 ± 16000
9,A33C G41U,4820 ± 2500
10,G32A G66C,1250 ± 160
11,G37A U47A,8130 ± 4700
12,A39U A53G,1410 ± 620
13,U30G U65C,722 ± 460
14,A39U C67G,1290 ± 420
15,A39C A42G,1490 ± 310
16,A39C A42U,2470 ± 1400
17,U31C C70G,428 ± 250
18,U30G C67A C70U,353 ± 78
19,G38A C70G,114 ± 72
20,G32C G43U,763 ± 760
21,A39G C50A,4350 ± 2200
22,A39U C68U,1340 ± 420
23,A39C C58A,31900 ± 19000
24,A39C U69C,999 ± 630
25,G38A C61A G66U U69C C70U,94.6 ± 48

# An excerpt of these results, as tab-separated lines:
row	Variant	KM [µM]
5	G32A G60U	369 ± 220
6	G37A U55A	4600 ± 2700
7	U31A C58A	32800 ± 9800
8	U31A C58G	35400 ± 16000

# Next records.

row,Variant,KM [µM]
1,U30C G32A,3840 ± 740
2,U30C C61G,178 ± 110
3,U31G A33U C70U,2540 ± 1500
4,A39G A42C,1060 ± 630
5,G32A A64U,939 ± 530
6,A39G G66U,1960 ± 79
7,U31C,2370 ± 430
8,U30C C71U,1530 ± 340
9,U30C C67U,927 ± 390
10,G38C C67U C70G,175 ± 140
11,G32U U65G,127000 ± 65000
12,A36U C61A,585 ± 530
13,A33U A53G C70U,20900 ± 2500
14,U31C U65C,238 ± 120
15,U31C U57A,90.6 ± 87
16,A39G G43U,1170 ± 240
17,A39G G43A,5960 ± 2100
18,G38C U65C C71G,17.6 ± 11
19,A39U C50A,12300 ± 1900
20,A33C A53U,1010 ± 530
21,C34A U55G,49.8 ± 49
22,U31C C71U,2690 ± 1700
23,G32C A53C,18600 ± 1900
24,U31C A52G C67U,4660 ± 4200
25,G32U G51U U55A,2690 ± 2100

row,Variant,KM [µM]
1,A39C A64U,609 ± 600
2,C34U G43A,123 ± 110
3,U31C G41U,1350 ± 260
4,U31C G41A,334 ± 190
5,G37A A64G,5780 ± 3900
6,U31A A52G,4620 ± 1600
7,G38U G66C C71U,50.4 ± 32
8,G37A U65G,3870 ± 390
9,U30G U56G,1190 ± 630
10,A33C U54A,7810 ± 1700
11,A33C U54G,2740 ± 1400
12,U31C C58G,2510 ± 2400
13,U31A A42G U47A,1050 ± 690
14,U31G A53U,5030 ± 2900
15,G37C C67U,315 ± 270
16,A33U U54A,993 ± 650
17,U31A U69A,120 ± 120
18,G32C G41U,6200 ± 4700
19,U30G A48G,324 ± 190
20,A33U C61G,319 ± 210
21,A39G U69G,55.4 ± 53
22,A39G C67A,854 ± 520
23,A39G A53G,2770 ± 830
24,U30G U54A,3060 ± 1700
25,U30G U54G,1420 ± 820

row,Variant,KM [µM]
1,U30G U54C,2170 ± 270
2,U31A U47G,1670 ± 920
3,G32A A42G A64G,1990 ± 1300
4,U31A U56G,2950 ± 1500
5,U31A A53C,5300 ± 2300
6,A39C U56A,4000 ± 1500
7,A33U C71U,2840 ± 690
8,A39G U45G,919 ± 540
9,A33U A53U G66A,10200 ± 430
10,A39G G40U,1420 ± 510
11,A39U C58A,15200 ± 5300
12,G37C G60C,204 ± 110
13,G37U C71A,471 ± 420
14,U31G A36U,166 ± 86
15,A36G U47G C71G,385 ± 300
16,U31C C67U,1290 ± 260
17,U31A G32U,8770 ± 5500
18,A33C G66A,2470 ± 580
19,U31G G32C,5520 ± 1100
20,G37U C70A,51.1 ± 45
21,U31C C61A,4050 ± 2500
22,G37A U46G,1970 ± 1400
23,A39G U54A,282 ± 100
24,U30G A39U,3710 ± 2200
25,G37C U45A,5840 ± 1900

# Individual results from the results shown.
# U31C C61A | KM [µM]: 4050 ± 2500
# U31G A36U | KM [µM]: 166 ± 86

# Later entries

row,Variant,KM [µM]
1,G37A U49G,2240 ± 1400
2,A33C U65A,617 ± 240
3,A39C A48U,2930 ± 1400
4,U30G C68G,120 ± 57
5,G32U A52G,3490 ± 570
6,A39G C71G,147 ± 130
7,A39G U47A,1300 ± 800
8,G37U C61A,323 ± 250
9,A33U U65A,11600 ± 970
10,A39U A42G,1440 ± 690
11,G32A U47G,3780 ± 1600
12,A36U C68G,61.3 ± 46
13,A39G A48G,1140 ± 840
14,A39G A48C,2140 ± 600
15,U31A C71A,1630 ± 1000
16,A39C G40C,1590 ± 47
17,A36G A53U,4580 ± 2300
18,G32A U49G,741 ± 85
19,U31C U55G,2750 ± 1200
20,U31C U55A,3270 ± 1100
21,U31C U49G,1610 ± 200
22,U30C C58U,7680 ± 6900
23,A33C U57A,480 ± 390
24,G32U U45A,3440 ± 1700
25,G32U U45G,24200 ± 12000

row,Variant,KM [µM]
1,U31G U54C,3090 ± 1700
2,A36U U57A G66C,10.3 ± 8.9
3,G38C C71A,320 ± 230
4,U31G U69A,102 ± 80
5,G32U C58A,5030 ± 1000
6,G32U C58U,5150 ± 2700
7,U31G G51C,210 ± 61
8,G37A G59A,227 ± 160
9,A39G C68G,139 ± 120
10,A33U A39C,3650 ± 1600
11,G35A C50G,1190 ± 540
12,U30G G60A,3450 ± 1800
13,C34A A53G,2740 ± 2300
14,G37A G43A,1190 ± 620
15,U31A A39C,2120 ± 1000
16,U31A U57A,2390 ± 95
17,A33G A64G C70A,412 ± 260
18,U31C U45A,3890 ± 1200
19,U30C,1950 ± 180
20,U31C G32A,6580 ± 2400
21,A33U G40U,21400 ± 2300
22,G35A C71G,26.4 ± 25

# Retrieved one by one from above, six records:
row,Variant,KM [µM]
19,U30C,1950 ± 180
6,A39G C71G,147 ± 130
23,A39G U54A,282 ± 100
1,A39C A64U,609 ± 600
15,U31C U57A,90.6 ± 87
9,U30C C67U,927 ± 390

# Variants of: B1
# Assay: self-cleavage kobs at 160 uM GlcN6P; higher = faster cleavage; RNA array
# Conditions: with glucosamine-6-phosphate
# Outline: as §1
row,Variant,self-cleavage kobs at 160 uM GlcN6P [s⁻¹]
1,G32A U45G,2.33e-05 ± 1.5e-05
2,U31C C70G,1.32e-05 ± 9.1e-06
3,G38A C61A G66U U69C C70U,2.83e-05 ± 1.9e-05
4,U31C G41U,2.38e-05 ± 1.4e-05
5,U31G A53U,0.000249 ± 0.00016
6,A39G C67A,0.000419 ± 0.00032
7,U30G C68G,1.67e-05 ± 1.5e-05
8,A36U C68G,0.000311 ± 0.0002

# Variants of: B1
# Assay: self-cleavage kobs at 2500 uM GlcN6P; higher = faster cleavage; RNA array
# Conditions: with glucosamine-6-phosphate
# Outline: as §1
row,Variant,self-cleavage kobs at 2500 uM GlcN6P [s⁻¹]
1,U31A C58A,7.67e-05 ± 5e-05
2,G38A C70G,1.8e-05 ± 1.6e-05
3,A39C C58A,1.47e-05 ± 1.4e-05
4,U31G A33U C70U,4.04e-05 ± 2.1e-05
5,A33U A53G C70U,1.9e-05 ± 1.3e-05
6,U31A A42G U47A,0.129 ± 0.08
7,A39G C67A,0.308 ± 0.22
8,G32A A42G A64G,0.000585 ± 0.0004
9,A39G U54A,0.0184 ± 0.0098
10,A33C U65A,3.88e-05 ± 2e-05
11,A36U C68G,0.000266 ± 0.00018
12,G37A G43A,2.19e-05 ± 1.1e-05
13,A33G A64G C70A,4.46e-05 ± 2.7e-05

# Variants of: B1
# Assay: self-cleavage kobs at 640 uM GlcN6P; higher = faster cleavage; RNA array
# Conditions: with glucosamine-6-phosphate
# Outline: as §1
row,Variant,self-cleavage kobs at 640 uM GlcN6P [s⁻¹]
1,A39C A42U,2.63e-05 ± 1.5e-05
2,G38A C61A G66U U69C C70U,3.9e-05 ± 2.4e-05
3,U31G A33U C70U,3.05e-05 ± 2.4e-05
4,U31C U57A,2.46e-05 ± 1.6e-05
5,A39U C58A,1.67e-05 ± 9.5e-06
6,U30G C68G,2.76e-05 ± 2e-05
7,A39G A48G,3.18e-05 ± 1.7e-05
8,G32U U45G,1.05e-05 ± 9.2e-06
9,A33G A64G C70A,3.03e-05 ± 2e-05

# Variants of: B1
# Assay: self-cleavage kobs at 40 uM GlcN6P; higher = faster cleavage; RNA array
# Conditions: with glucosamine-6-phosphate
# Outline: as §1
row,Variant,self-cleavage kobs at 40 uM GlcN6P [s⁻¹]
1,U30G C67A C70U,3.58e-05 ± 2.6e-05
2,U30C G32A,1.66e-05 ± 9.8e-06
3,U31C G41U,1.82e-05 ± 1.8e-05
4,U31A U69A,1.81e-05 ± 1.5e-05
5,G32A U47G,2.89e-05 ± 1.9e-05
6,G32U C58A,1.36e-05 ± 1.1e-05
7,G35A C50G,1.94e-05 ± 1.5e-05

# Variants of: B1
# Assay: self-cleavage kobs at 10000 uM GlcN6P; higher = faster cleavage; RNA array
# Conditions: with glucosamine-6-phosphate
# Outline: as §1
row,Variant,self-cleavage kobs at 10000 uM GlcN6P [s⁻¹]
1,A39G C50A,2.28e-05 ± 1.2e-05
2,G32C A53C,1.27e-05 ± 1.1e-05
3,G37C C67U,2.44e-05 ± 1.3e-05
4,A33U A53U G66A,3.76e-05 ± 2.2e-05
5,A33U U65A,1.56e-05 ± 1.5e-05
6,U30C C58U,1.84e-05 ± 1.5e-05
7,A33U A39C,1.28e-05 ± 9.2e-06
8,G35A C50G,0.000476 ± 0.00031
